US20030216297A1, “Pharmaceutical composition” (SANKYO COMPANY, LIMITED, priority 2002, published 2003)

assay: Immunological detection rate (OCIF by ELISA divided by protein by Lowry's method); conditions: OCIF by ELISA (OI-19 / POD-OI-4) divided by protein by Lowry's method

Row | Substance | The immunological detection rate of OCIF/DS complex
1 | OCIF: recombinant dimeric human osteoclastogenesis inhibitory factor, molecular weight about 120000, non-complexed | 1.06
2 | Prep. 6: OCIF/DS5 complex: DS5 130 mg/ml, OCIF 6.5 mg/ml, 4 °C, pH 10.5, 48 h | 1.07
3 | Prep. 7: OCIF/DS5 complex: DS5 130 mg/ml, OCIF 6.5 mg/ml, 4 °C, pH 10.5, 144 h | 0.74
4 | Prep. 8: OCIF/DS5 complex: DS5 130 mg/ml, OCIF 6.5 mg/ml, 4 °C, pH 10.5, 288 h | 0.88
5 | Prep. 22: OCIF/DS5 complex: DS5 150 mg/ml, OCIF 5 mg/ml, 7 °C, pH 10.5, 168 h | 1.06
6 | Prep. 24: OCIF/DS5 complex: DS5 150 mg/ml, OCIF 5 mg/ml, 25 °C, pH 10, 24 h | 1.02
7 | Prep. 25: OCIF/DS5 complex: DS5 130 mg/ml, OCIF 6.5 mg/ml, 4 °C, pH 10.5, 24 h | 0.87
8 | Prep. 27: OCIF/DS5 complex: DS5 150 mg/ml, OCIF 5 mg/ml, 4 °C, pH 10.5, 144 h | 1.04
